This is an account of results in article PMC4674085 (PLoS ONE, 2015).

Strings that start with PEPTIDE1 are HELM notation: dots part the residues, brackets hold end groups and non-standard residues. A value given as a limit tells only on which side of the number the result lay.

The nature of the series: general procedure: Fmoc solid-phase peptide synthesis; rink-amide resin (0.88 μmol/mg) from Bachem; HCTU, DIEA. The settings on record: whole synthesis, MALDI FT-ICR MS and reversed phase HPLC, scale of the general procedure 40–50 mg resin.
PEPTIDE1{S.V.S.V.[am]}$$$$V2.0: the “final HPLC purity” value is >95%.
Take PEPTIDE1{S.V.S.V.S.V.[am]}$$$$V2.0: the “final HPLC purity” value is >95%.
As for PEPTIDE1{V.S.V.S.V.S.V.[am]}$$$$V2.0, the “final HPLC purity” value is on record as >95%.
As to PEPTIDE1{V.S.V.S.V.[am]}$$$$V2.0, the “final HPLC purity” value was >95%.
Regarding PEPTIDE1{V.S.V.S.[am]}$$$$V2.0, the “crude HPLC purity” value is given as ~60%.
Regarding “PEPTIDE1{S.V.S.V.S.V.S.V.S.[am]}$$$$V2.0”, the “crude HPLC purity” value is on record as ~50%.
The same measure, in the same setting: the value for PEPTIDE1{V.S.V.S.V.S.[am]}$$$$V2.0 was ~60%.
On the same count and under the same terms, the value for PEPTIDE1{S.V.S.V.S.V.S.[am]}$$$$V2.0 was ~50%; that for PEPTIDE1{V.S.V.S.V.S.V.S.[am]}$$$$V2.0 was ~50%; that for PEPTIDE1{S.V.S.V.S.[am]}$$$$V2.0 was ~60%.
